Results on 22 targets are retold here after the supplement of paper PMC10849652.

Amino acid sequences for entries named in this document (tags omitted). A change or cut given only in a name is not applied to a line headed by its entry.
UniProt Q6PCT2: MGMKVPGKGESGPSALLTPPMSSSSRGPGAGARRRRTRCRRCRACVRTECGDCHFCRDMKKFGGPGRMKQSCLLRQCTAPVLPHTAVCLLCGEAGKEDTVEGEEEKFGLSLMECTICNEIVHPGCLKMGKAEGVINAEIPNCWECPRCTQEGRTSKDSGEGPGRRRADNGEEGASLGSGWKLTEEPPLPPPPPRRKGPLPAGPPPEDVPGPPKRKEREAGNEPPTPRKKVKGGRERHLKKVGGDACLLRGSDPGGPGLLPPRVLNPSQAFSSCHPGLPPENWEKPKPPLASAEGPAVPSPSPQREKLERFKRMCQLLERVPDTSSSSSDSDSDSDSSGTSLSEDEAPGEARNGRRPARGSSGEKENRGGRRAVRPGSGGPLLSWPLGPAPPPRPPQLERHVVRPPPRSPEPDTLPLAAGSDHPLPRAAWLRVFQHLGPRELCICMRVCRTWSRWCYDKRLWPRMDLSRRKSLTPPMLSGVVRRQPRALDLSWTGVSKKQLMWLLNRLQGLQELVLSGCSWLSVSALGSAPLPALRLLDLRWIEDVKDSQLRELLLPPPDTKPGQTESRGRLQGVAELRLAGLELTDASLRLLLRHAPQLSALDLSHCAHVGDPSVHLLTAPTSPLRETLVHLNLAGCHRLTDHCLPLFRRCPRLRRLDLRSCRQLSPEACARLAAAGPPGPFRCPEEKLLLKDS
UniProt Q6UN15: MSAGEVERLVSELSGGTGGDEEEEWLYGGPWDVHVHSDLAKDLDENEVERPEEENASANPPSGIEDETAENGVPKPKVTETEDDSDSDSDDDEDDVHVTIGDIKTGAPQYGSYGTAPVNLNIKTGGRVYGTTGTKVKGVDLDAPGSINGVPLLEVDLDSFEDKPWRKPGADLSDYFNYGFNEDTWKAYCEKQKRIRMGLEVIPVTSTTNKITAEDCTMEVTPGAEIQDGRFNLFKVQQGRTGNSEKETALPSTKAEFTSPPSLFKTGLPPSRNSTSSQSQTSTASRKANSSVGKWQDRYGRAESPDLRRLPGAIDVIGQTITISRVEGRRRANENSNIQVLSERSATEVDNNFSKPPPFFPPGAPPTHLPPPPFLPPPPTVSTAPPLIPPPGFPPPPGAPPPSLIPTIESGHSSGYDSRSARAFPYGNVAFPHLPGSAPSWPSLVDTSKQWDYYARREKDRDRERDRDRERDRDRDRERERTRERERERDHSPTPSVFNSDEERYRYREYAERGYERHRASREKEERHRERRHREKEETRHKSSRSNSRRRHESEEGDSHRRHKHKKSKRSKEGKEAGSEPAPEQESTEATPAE
UniProt B1AJZ9: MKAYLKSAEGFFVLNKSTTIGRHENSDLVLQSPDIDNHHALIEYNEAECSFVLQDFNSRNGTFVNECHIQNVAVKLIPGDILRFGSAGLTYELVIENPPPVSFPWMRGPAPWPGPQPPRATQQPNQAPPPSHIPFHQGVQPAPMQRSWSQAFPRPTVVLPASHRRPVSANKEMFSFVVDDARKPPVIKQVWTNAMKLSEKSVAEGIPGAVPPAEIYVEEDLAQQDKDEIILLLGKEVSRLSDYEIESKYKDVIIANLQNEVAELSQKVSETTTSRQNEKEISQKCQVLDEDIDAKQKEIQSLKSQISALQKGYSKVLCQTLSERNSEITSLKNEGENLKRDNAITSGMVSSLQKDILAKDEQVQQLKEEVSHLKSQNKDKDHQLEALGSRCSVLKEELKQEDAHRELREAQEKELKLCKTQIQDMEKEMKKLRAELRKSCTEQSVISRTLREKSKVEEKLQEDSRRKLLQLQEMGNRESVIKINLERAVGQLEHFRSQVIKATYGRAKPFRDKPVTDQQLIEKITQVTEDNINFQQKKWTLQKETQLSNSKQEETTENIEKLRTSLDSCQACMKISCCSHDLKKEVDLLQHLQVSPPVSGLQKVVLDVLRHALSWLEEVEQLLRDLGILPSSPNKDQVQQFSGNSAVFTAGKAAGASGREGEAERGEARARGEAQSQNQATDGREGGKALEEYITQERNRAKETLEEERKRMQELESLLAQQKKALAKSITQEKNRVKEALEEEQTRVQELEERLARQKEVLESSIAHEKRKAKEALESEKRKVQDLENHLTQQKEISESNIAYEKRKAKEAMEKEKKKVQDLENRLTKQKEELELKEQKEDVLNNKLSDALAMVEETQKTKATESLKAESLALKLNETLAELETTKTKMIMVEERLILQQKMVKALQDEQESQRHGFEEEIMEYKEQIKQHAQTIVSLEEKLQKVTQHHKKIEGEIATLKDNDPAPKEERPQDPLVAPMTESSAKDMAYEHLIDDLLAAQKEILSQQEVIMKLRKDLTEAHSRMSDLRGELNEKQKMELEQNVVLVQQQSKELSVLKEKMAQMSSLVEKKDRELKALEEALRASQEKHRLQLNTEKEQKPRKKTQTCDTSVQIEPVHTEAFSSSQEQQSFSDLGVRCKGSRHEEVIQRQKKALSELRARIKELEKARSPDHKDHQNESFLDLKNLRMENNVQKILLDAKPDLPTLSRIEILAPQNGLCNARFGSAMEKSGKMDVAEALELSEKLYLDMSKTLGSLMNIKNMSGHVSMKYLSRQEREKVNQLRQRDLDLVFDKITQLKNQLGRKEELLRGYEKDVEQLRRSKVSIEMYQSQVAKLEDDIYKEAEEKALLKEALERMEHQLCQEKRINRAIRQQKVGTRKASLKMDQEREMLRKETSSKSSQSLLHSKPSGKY
UniProt Q13045: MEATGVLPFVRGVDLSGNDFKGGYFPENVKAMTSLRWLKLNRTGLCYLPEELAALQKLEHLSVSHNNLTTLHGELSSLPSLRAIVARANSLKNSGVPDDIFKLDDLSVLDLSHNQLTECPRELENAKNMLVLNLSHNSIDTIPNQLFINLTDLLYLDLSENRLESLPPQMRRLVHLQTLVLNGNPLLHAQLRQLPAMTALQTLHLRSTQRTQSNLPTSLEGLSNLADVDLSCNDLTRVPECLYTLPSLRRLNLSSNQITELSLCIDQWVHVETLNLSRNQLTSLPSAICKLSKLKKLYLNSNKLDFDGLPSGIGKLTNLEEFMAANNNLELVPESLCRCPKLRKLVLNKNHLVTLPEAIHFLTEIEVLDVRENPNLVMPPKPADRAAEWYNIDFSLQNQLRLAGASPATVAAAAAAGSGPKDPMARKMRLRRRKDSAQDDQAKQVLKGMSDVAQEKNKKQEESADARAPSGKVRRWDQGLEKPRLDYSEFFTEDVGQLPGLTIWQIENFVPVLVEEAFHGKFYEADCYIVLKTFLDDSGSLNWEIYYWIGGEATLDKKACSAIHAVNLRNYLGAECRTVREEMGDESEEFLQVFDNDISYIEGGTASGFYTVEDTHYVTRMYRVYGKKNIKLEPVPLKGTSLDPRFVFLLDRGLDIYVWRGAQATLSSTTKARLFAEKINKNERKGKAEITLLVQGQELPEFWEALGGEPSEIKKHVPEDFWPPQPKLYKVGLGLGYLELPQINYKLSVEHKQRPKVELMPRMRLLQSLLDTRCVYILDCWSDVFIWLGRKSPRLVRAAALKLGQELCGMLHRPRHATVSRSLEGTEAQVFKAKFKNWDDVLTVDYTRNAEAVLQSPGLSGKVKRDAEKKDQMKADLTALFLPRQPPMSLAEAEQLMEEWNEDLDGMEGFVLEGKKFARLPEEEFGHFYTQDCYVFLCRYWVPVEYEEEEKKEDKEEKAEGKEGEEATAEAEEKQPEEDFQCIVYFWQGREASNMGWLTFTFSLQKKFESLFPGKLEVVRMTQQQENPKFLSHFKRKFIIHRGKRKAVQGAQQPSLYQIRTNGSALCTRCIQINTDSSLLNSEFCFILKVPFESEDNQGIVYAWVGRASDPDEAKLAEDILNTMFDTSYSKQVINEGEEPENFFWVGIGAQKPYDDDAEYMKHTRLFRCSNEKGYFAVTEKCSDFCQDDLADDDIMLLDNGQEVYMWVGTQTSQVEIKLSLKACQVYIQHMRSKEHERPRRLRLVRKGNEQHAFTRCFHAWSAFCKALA
UniProt Q9Y4F1: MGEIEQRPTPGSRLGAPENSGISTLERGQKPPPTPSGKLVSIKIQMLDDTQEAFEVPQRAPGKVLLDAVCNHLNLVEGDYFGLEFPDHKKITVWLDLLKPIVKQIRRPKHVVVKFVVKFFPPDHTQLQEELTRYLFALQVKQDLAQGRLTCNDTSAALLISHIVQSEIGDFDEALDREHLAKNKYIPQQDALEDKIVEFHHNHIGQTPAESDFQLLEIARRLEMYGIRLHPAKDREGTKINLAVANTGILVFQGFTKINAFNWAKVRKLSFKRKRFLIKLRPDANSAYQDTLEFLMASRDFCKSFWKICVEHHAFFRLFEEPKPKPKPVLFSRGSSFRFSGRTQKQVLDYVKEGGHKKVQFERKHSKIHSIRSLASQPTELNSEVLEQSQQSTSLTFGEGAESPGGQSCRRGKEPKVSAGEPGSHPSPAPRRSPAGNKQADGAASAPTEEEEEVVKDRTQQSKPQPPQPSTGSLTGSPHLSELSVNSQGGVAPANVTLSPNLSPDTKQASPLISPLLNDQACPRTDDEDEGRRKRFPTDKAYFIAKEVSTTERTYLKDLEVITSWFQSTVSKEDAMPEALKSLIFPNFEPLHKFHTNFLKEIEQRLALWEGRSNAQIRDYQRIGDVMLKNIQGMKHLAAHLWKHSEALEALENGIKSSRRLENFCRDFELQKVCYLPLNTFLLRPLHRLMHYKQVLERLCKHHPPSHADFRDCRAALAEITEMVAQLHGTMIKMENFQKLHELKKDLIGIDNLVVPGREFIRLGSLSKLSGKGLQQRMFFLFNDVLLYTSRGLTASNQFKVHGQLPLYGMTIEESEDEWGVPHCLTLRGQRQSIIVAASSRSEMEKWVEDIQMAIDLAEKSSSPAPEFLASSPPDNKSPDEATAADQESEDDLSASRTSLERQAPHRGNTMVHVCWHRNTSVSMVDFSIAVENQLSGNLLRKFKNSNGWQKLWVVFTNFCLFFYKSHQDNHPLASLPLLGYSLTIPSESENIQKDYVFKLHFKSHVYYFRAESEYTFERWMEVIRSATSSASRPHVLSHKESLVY
UniProt P15407: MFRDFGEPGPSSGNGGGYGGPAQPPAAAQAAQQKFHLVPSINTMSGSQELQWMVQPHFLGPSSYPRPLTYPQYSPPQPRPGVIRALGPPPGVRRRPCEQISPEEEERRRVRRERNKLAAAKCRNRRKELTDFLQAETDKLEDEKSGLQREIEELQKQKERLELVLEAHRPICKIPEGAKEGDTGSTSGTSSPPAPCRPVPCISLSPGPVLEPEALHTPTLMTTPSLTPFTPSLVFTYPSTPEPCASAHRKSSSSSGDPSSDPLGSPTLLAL
UniProt Q96JP0: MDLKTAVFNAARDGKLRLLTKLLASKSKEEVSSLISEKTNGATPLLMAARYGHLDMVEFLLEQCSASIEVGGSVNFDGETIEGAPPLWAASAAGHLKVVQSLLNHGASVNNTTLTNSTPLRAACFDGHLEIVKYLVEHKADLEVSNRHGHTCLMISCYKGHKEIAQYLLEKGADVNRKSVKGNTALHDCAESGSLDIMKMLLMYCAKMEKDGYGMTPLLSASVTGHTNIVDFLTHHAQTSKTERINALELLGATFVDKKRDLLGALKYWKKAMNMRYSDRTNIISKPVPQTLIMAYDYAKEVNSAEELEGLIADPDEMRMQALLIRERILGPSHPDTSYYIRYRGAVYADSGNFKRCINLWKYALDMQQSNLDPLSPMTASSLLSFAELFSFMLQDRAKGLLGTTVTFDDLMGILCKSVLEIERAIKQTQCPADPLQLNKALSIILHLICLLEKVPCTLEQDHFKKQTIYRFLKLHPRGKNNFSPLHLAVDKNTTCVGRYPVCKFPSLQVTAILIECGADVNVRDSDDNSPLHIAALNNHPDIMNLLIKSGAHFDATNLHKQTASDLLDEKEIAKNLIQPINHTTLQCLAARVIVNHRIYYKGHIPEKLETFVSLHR
UniProt Q9HB96: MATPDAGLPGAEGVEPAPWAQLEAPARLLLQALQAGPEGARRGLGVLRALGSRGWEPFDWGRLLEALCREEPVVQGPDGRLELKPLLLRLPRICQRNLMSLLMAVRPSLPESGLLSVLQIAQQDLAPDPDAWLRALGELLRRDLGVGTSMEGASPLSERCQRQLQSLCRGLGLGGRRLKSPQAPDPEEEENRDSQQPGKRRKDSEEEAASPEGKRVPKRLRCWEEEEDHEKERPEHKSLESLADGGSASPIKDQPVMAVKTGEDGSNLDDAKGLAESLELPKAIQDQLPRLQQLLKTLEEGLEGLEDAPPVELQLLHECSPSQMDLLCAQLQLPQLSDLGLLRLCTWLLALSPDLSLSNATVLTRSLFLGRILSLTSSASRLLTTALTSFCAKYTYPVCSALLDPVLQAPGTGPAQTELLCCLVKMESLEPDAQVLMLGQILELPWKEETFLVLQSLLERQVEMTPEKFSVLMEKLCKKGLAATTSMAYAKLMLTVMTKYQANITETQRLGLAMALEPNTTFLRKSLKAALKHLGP

This is one part of the list.

Compound in one assay: CNC(=O)C1=CC=CC=C1NC2=NC(=NC=C2Cl)NC3=C(C=C(C=C3)N4CCOCC4)OC
Put plainly: log2 fold change, soluble protein after heating vs DMSO (PISA); higher = thermal stabilisation; K562 lysate, 10 uM; active = over 0.2 and 3.5 SD of the protein, either way, in both replicates (recomputed). A digest of the protocol: (§1)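 Values give the log-two fold change in thermal stability against solvent controls, from duplicates. Crude K562 extract at 1 mg/mL protein, made by dounce homogenisation in PBS pH 7.4 with 1 mM MgCl2, was treated with 10 μM compound for 30 min. After 3 min heating across 48°C-58°C, aliquots were pooled, adjusted to 0.5% NP-40 at 4°C and centrifuged at 21,000xg for 90 min. The supernatant was measured by TMTpro 16plex LC-MS/MS with channel sums equalised.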
Turning to FEM1A (UniProt Q9BSK4), the log2 fold change was inactive: -0.025. On the same count and under the same terms, in the case of FANCC (UniProt Q00597) it was inactive: -0.157. Same read-out and setting: in the case of FBXL4 (UniProt Q9UKA2) it was inactive: -0.037. With FBXL19 (UniProt Q6PCT2), the log2 fold change was inactive: -0.162.

On to FMR1 isoform 9 (UniProt Q06787), for which the log2 fold change is inactive: 0.223. Still for that read-out and setting: under FBXW8 (UniProt Q8N3Y1) stands inactive: -0.119; under FIP1L1 isoform 3 (UniProt Q6UN15), inactive: -0.054. Consider FMNL2 isoform 3 (UniProt Q96PY5), for which the log2 fold change is inactive: 0.011. Still for that read-out and setting: in the case of FHAD1 isoform 3 (UniProt B1AJZ9) it was inactive: -0.017; in that of FLNA (UniProt H0Y5C6), inactive: 0.003.

Compound in the next assay: CNC(=O)c1ccc(Nc2ncc(C(F)(F)F)c(NCc3nccnc3N(C)S(C)(=O)=O)n2)cc1 [defactinib]
The description is as above. Put shortly: as §1
On to FANCA (UniProt O15360), for which the log2 fold change is inactive: 0.143.

Consider FEM1A (UniProt Q9BSK4), for which the log2 fold change is inactive: -0.057.

With FGFR1OP isoform 3 (UniProt O95684), the log2 fold change was inactive: -0.205.

Consider FLII isoform 2 (UniProt Q13045), for which the log2 fold change is inactive: -0.045. The same measure, in the same setting: in the case of FBXW8 (UniProt Q8N3Y1) it was inactive: -0.258; in that of FARP1 isoform 2 (UniProt Q9Y4F1), inactive: -0.069; in that of FHAD1 isoform 3 (UniProt B1AJZ9), inactive: -0.112.

Consider FLNA (UniProt H0Y5C6), for which the log2 fold change is inactive: -0.187. The same measure, in the same setting: in the case of FAM86B2 (UniProt P0C5J1) it was inactive: 0.179.

Compound in the next assay: CNc1nc(-c2ccc3c(N)n[nH]c3c2)cc(N2C[C@@H](C(=O)NC3CCCCC3)CC[C@H]2C)n1
Described as above. A digest of the protocol:
as §1
In the case of FANCA (UniProt O15360), the log2 fold change was inactive: 0.133.

Regarding FOSL1 (UniProt P15407), the log2 fold change is inactive: -0.2. On the same count and under the same terms, under FEM1C (UniProt Q96JP0) stands inactive: 0.052; under FMR1 isoform 9 (UniProt Q06787), inactive: -0.011. For FLYWCH1 isoform 3 (UniProt Q4VC44), the log2 fold change is inactive: -0.039. With FANCE (UniProt Q9HB96), the log2 fold change was inactive: -0.075. In the case of FCHSD2 (UniProt O94868), the log2 fold change was inactive: 0.045.

In the case of FARP1 isoform 2 (UniProt Q9Y4F1), the log2 fold change is inactive: 0.045. On to FMNL2 isoform 3 (UniProt Q96PY5), for which the log2 fold change is inactive: 0.044. Still for that read-out and setting: in the case of FCF1 (UniProt Q9Y324) it was inactive: -0.174. Same read-out and setting: in the case of FHAD1 isoform 3 (UniProt B1AJZ9) it was inactive: 0.118; in that of FILIP1L (UniProt Q4L180), inactive: 0.064; in that of FLNA (UniProt H0Y5C6), inactive: 0.148.
